Results as given in article PMC7819943, “Rice protein-binding microarrays: a tool to detect cis-acting elements near promoter regions in rice”.
Some of the results follow.

The chains behind the UniProt entries cited, without tags or fusion partners.
UniProt Q0JBA9, entry or part of it: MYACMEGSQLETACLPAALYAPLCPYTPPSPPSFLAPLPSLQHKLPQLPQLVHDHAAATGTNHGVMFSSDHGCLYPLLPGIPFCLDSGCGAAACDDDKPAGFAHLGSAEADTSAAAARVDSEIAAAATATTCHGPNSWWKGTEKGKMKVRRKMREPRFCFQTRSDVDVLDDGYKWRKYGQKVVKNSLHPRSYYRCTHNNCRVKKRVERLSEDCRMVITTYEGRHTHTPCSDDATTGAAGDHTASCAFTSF

target: OsWRKY34 (Oryza sativa, UniProt Q0JBA9 1-250); assay: protein-binding microarray (RPBM); PBS, 2% BSA, 51.3 ng/ul salmon testes DNA, 50 uM zinc acetate, 200 nM TF, 25 C, 1 h; high values mean tight binding; details: protein: recombinant; tags: N-terminal polyhistidine and DsRed monomer fusion (pET32a); label: CyDye5-dUTP incorporated in the synthesized complementary strand; 3' TTTTT single-stranded linker to array surface; dsDNA, one strand shown
How it was run: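 Transcription factors were made in E. coli BL21-CodonPlus as N-terminal fusions to a polyhistidine tag and DsRed, then purified on Ni–NTA. After primer extension with Cy5-dUTP and blocking with 2% BSA, a custom Agilent array was exposed for 1 h at 25 °C to 200 nM protein in PBS, 2% BSA, salmon testes DNA and 50 µM zinc acetate. Washed arrays were scanned on an Axon 4000B, and the binding signal is per-feature fluorescence intensity in arbitrary units.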

| Sequence | binding signal |
| --- | --- |
| GGACATAATCCCTGCGGTTCCATAATTCTTGACGTCCTTACGGAGTCACCTAGTGCAG | 8880 fluorescence intensity (a.u.) |
| GTGTGTGTTGGCCATCGGTGGCGGCCATCTTCTCGCTCGACGGAGTCACCTAGTGCAG | 9760 fluorescence intensity (a.u.) |
| GCAGTACACATATCCAAATCTACGTTGTGTTCGATCGATCCGGAGTCACCTAGTGCAG | 8180 fluorescence intensity (a.u.) |
| GCTTTTCTCATTCTAAGACTTTATTTTCTTTCGGCAAAGACGGAGTCACCTAGTGCAG | 9340 fluorescence intensity (a.u.) |
| TGTCTATATACCTCCCTGTTACTGTCTGGTTTACTGCATGCGGAGTCACCTAGTGCAG | 8780 fluorescence intensity (a.u.) |
| TGTGACACTGGAACGTCGGTTTGATCACCCGGCCGGCCCCCGGAGTCACCTAGTGCAG | 9090 fluorescence intensity (a.u.) |
| TGCACCCAAATTCTCGCCGTCGTTCCATCGTTTCTGTGGACGGAGTCACCTAGTGCAG | 8370 fluorescence intensity (a.u.) |
| AACGGCTATTCCTACGTTAATTTTCATGTTTTGTAATGATCGGAGTCACCTAGTGCAG | 8160 fluorescence intensity (a.u.) |
| GCGCCACCACCGCCGTCGTGCGACGCCGTCTGTGCCGTGCCGGAGTCACCTAGTGCAG | 8300 fluorescence intensity (a.u.) |
| CTACCATTCAAATCCCTAACTGCCTGTCTGCCATTTCTCTCGGAGTCACCTAGTGCAG | 10400 fluorescence intensity (a.u.) |
| CACACACACTCACAACTGTCAAATCTCACCTGCAGATTAACGGAGTCACCTAGTGCAG | 8850 fluorescence intensity (a.u.) |
| CTCTCCTTGTTGATCGCCTATATAAACCGCGCCATGCGCCCGGAGTCACCTAGTGCAG | 8080 fluorescence intensity (a.u.) |
| AGCAGGTATGTCACTGTGTTAGTTTCGGTTCGATTTTGGGCGGAGTCACCTAGTGCAG | 9910 fluorescence intensity (a.u.) |
| TCACACCGTTCTTCATGTATTTTAATAAGTGTGCACAATACGGAGTCACCTAGTGCAG | 8700 fluorescence intensity (a.u.) |
| CATTTAGTTTGGGATGGGGTGGTTGATCCGATTTTTTCTGCGGAGTCACCTAGTGCAG | 14700 fluorescence intensity (a.u.) |
| CTACTCCCTCCGTTTCACAGCATTTTCCACATTCATATTGCGGAGTCACCTAGTGCAG | 10200 fluorescence intensity (a.u.) |
| GCGCGCCGAGTCCAACTTGCCCACCAACTCGCGCCAACCACGGAGTCACCTAGTGCAG | 11000 fluorescence intensity (a.u.) |
| CTCTCTCTCTCGTATTTTCCCATGTTACATGCTCTCTCTTCGGAGTCACCTAGTGCAG | 12000 fluorescence intensity (a.u.) |
| TGCTTTACTTGCTCACAGTTGTCCTCTTGCCTCGTCGTGTCGGAGTCACCTAGTGCAG | 8400 fluorescence intensity (a.u.) |
| TATTTTCTGCTGTTTGCATGTAACGCCGCGGCACTACTCTCGGAGTCACCTAGTGCAG | 8840 fluorescence intensity (a.u.) |
| ATGACCTACATTTTTTTTCATATTTACCCAACTATCGACGCGGAGTCACCTAGTGCAG | 8170 fluorescence intensity (a.u.) |

| Sequence | binding signal |
| --- | --- |
| GAAATATTTGTTGCTGATGTACGCTTTTCTGTTTTTCTTTCGGAGTCACCTAGTGCAG | 13800 fluorescence intensity (a.u.) |
| ATGTCTCCGTCTCTTTTACCTCAGTCTCGCGTATATCCTACGGAGTCACCTAGTGCAG | 10100 fluorescence intensity (a.u.) |
| GCCCAAAAATACAATCTCTGCACAATACAGAACCTTTGACCGGAGTCACCTAGTGCAG | 8710 fluorescence intensity (a.u.) |
| CGGCCTCCTCACCCACATCCGCCGCCGCCGCCGCAGAATCCGGAGTCACCTAGTGCAG | 8680 fluorescence intensity (a.u.) |
| ATAATTGGTCAACCTGTTTTTCTTGACCGTTCTCGAGCTCCGGAGTCACCTAGTGCAG | 11100 fluorescence intensity (a.u.) |
| CCACGTTGACTAGAACCGAGCACTATACAGCTTAGGGCGTCGGAGTCACCTAGTGCAG | 8360 fluorescence intensity (a.u.) |
| ATAACTAATATCCTCAACCGTTTGCTCTCATCACACATTCCGGAGTCACCTAGTGCAG | 9970 fluorescence intensity (a.u.) |
| ACCGTCGTCAGCAACGCCGCTACTGCCACTGCAATTGCCGCGGAGTCACCTAGTGCAG | 8320 fluorescence intensity (a.u.) |
| GTTCTTCCCCTATTTCTTACTGTAGTCTCATTTATTTAGACGGAGTCACCTAGTGCAG | 8710 fluorescence intensity (a.u.) |
| CCTTCGCCGCCTCGTGACCACCTCGATTTATTTCGCAACCCGGAGTCACCTAGTGCAG | 9880 fluorescence intensity (a.u.) |
| TTCTTTTTCTTTTTCTTTTTGTTTTTGGTGGACATAAATTCGGAGTCACCTAGTGCAG | 8800 fluorescence intensity (a.u.) |
| CGTGATGGTGTTATTTGGTTACATCGGTTTAGAACGGGTTCGGAGTCACCTAGTGCAG | 10200 fluorescence intensity (a.u.) |
| CAACGTTATTTTCCATTCCGCTCGTCGCTCCCACTCCTCTCGGAGTCACCTAGTGCAG | 9450 fluorescence intensity (a.u.) |
| GAGATCTCTCGTCACTCCACTGATTCACTCGCTAGCTAGCCGGAGTCACCTAGTGCAG | 8780 fluorescence intensity (a.u.) |
| TGCCAAAATTTCCAATTTATTTTTTTTTTGTTCATGATCTCGGAGTCACCTAGTGCAG | 8040 fluorescence intensity (a.u.) |
| GTCCACATTGTCCTTTGTGTCCCATCATCTTAGTTTTTTCCGGAGTCACCTAGTGCAG | 11100 fluorescence intensity (a.u.) |
| GTAGCTTTCCTCTCTGGATCGATCATATATATCACTATATCGGAGTCACCTAGTGCAG | 9880 fluorescence intensity (a.u.) |
| GACTCTAATATTCTCATGTTCCCAAATCCCACTTCCCACACGGAGTCACCTAGTGCAG | 10200 fluorescence intensity (a.u.) |
| CGTGGTTGTGGAGTAGATAAAAAAAGCCCGATCGGGCTGTCGGAGTCACCTAGTGCAG | 8620 fluorescence intensity (a.u.) |
| CGTCGTGTGTATATTGGTAAAAACTTGGACGACACCATAGCGGAGTCACCTAGTGCAG | 8180 fluorescence intensity (a.u.) |
| CTCTCTCTCGGTCTCATCAGTTTCTCACTCCACCGTTTTTCGGAGTCACCTAGTGCAG | 14300 fluorescence intensity (a.u.) |
